Measurements taken from PubChem BioAssay AID1273 (Columbia University Molecular Screening Center, 2008).
Some of the results follow. These are further read-outs of the screen, such as a control signal, another cell line or another target. No call is given for them. Most of these compounds were active or inconclusive in the main read-out, so they are no random draw.

Assay: insulin gene promoter suppression in islet cells – imaging, TRM-6 cells (human fetal islet line), eGFP reporter, cell count, primary screen (AID 1273;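 also: cells exposed to compound for 48 h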)
Details: measured here: cell count, toxicity, at 2 µM, reporter expression induced with tamoxifen

Structure (SMILES)	normalized cell count [%]
COc1ccc(Nc2nnc(Cc3ccccc3)c(=O)[nH]2)c(OC)c1	117
CSC1=NCCN1S(=O)(=O)c1ccc(C)cc1	80.9
CCC(=O)n1nc(-c2ccccc2)nc1NCc1ccccc1	101
CCN(CC)S(=O)(=O)c1ccc2nc(SC)sc2c1	135
Cc1ccc2nc(-c3cccc(N)c3)[nH]c2c1	154
CNC(=O)c1ccsc1NC(=O)CCS(=O)(=O)c1ccccc1	80
NC(=O)c1c(C(F)(F)F)cc(-c2ccccc2)nc1NCCO	128
NC(=O)c1cccnc1Nc1cccc(F)c1	150
C=C(C)CSCc1nc2ccccc2[nH]1	178
C=C(C)C1CC=C(C)/C(=N/NC(=O)c2ccc(NC(=O)CCC)cc2)C1 (stereo not given)	106
COc1cc(/C=C(\C#N)C(=O)NCC2CCCO2)ccc1OC(C)C (stereo not given)	119
Nc1c(C(=O)C2CC2)sc2nc(-c3ccccc3)cc(C(F)(F)F)c12	98.6
CCC(C)NC(=O)c1ccccc1NC(=O)COc1ccc(OC)cc1 (stereo not given)	20.9
COc1ccccc1/C=N/NC(=O)c1ccc(NC(=O)c2ccccc2Br)cc1	72.7
Cc1ccc(NCc2ccc(O)c3ncccc23)cc1C	105
Cc1nc2c([nH]c3ccc(Br)cc32)s1	131
COC(=O)COc1ccc(S(=O)(=O)Nc2ccccc2SC)cc1	110
O=c1[nH]c2ccc(Cl)cc2c(O)c1Cc1ccccc1	102
CC(C)Nc1nc(NC(C)C)nc(N(C)C#N)n1	111
CCOC(=O)Nc1ccc2c(c1)N(C(=O)CCN1CCN(CCO)CC1)c1ccccc1S2	107
CCOC(=O)/C=c1\s/c(=C\c2ccc(C)cc2)c(=O)n1CC(=O)NCc1ccco1	210
O=C(COC(=O)CC12CC3CC(CC(C3)C1)C2)Nc1ncc(Cl)cc1Cl	9.52
O=C(Nc1ccc(Cl)cc1C(=O)NCC1CCCO1)c1ccco1 (stereo not given)	82.6

Of the compounds above, two contain a CF3 group:
Structure (SMILES)	normalized cell count [%]
NC(=O)c1c(C(F)(F)F)cc(-c2ccccc2)nc1NCCO	128
Nc1c(C(=O)C2CC2)sc2nc(-c3ccccc3)cc(C(F)(F)F)c12	98.6

(further entries)

Structure (SMILES)	normalized cell count [%]
CS(=O)(=O)N1CCC(C(=O)Nc2ccc(OCc3ccccc3)cc2)CC1	88
CC(C)c1cc(C(N)=O)c(NC(=O)C2CCC2)s1	103
COc1cc(C2NC(=O)NC(C)=C2C(=O)OC2CCCC(C)C2)ccc1O (stereo not given)	168
COc1ccc(NC(=O)c2ccc(C(=O)c3ccccc3)o2)cc1	87.5
Cc1cc(C)cc(OCC(O)CN2CCN(Cc3ccc4c(c3)OCO4)CC2)c1 (stereo not given)	47.4
S=C(NCCc1ccccc1)Nc1cccc2cnccc12	147
CCOc1ccc(C(=O)OCC(=O)Nc2nc(OC)cc(OC)n2)cc1OCC	111
COc1ccc(-c2c3c(=O)n(C)c(=O)n(C)c3cn2Cc2cccnc2)cc1	75.9
Cc1ccc(Nc2nc(Oc3ccc(=O)[nH]n3)nc(N(C)C)n2)cc1	115
CCOc1ccc(S(=O)(=O)n2cc(-c3ccc(F)cc3)c(N)n2)cc1	108
CC1(C)Cc2c(sc3ncnc(N)c23)CO1	28.6
O=C(c1cccc(-c2ccc(O)cc2)c1)N1CCN(c2ccc(F)cc2)CC1	88.6
COCC(=O)Nc1ccc(S(=O)(=O)NCCc2ccccc2)cc1	5.45
COC(=O)C(F)(F)Sc1c(C)[nH]c2ccccc12	91.8
O=C(Nc1cccc(Cl)c1)/C(=C\c1cccnc1)NC(=O)c1ccco1	114
Cc1ccc2[nH]c3c(NCc4ccco4)ncnc3c2c1	149
Cc1nn(-c2ccccc2)c(Cl)c1/C=N/NS(=O)(=O)c1ccc(Br)cc1	134
COc1ccc(C(=O)NC(C(=O)NCC2CCCO2)C(C)C)cc1 (stereo not given)	31.4
CCC(NC(=O)NCc1ccccc1)(C(F)(F)F)C(F)(F)F	64.1
CS(=O)(=O)NCc1ccc(C(=O)NCCOc2ccccc2)cc1	10.6
O=C(O)c1ccc(CNC(=O)c2ccc(C(F)(F)F)cc2)cc1	116
CCCc1nc2ccccc2c2nc(N)nn12	110
COc1ccc(N2CCN(C(=O)CCCn3c(=O)[nH]c4cc(Cl)ccc4c3=O)CC2)cc1	90.5

Structure (SMILES)	normalized cell count [%]
O=C(N1CCN(c2ccccn2)CC1)C(Cl)(Cl)Cl	138
CC(C)(C)C(=O)NC(=S)NNC(=O)c1ccc(-c2ccccc2)cc1	80.7
O=C(O)Cc1ccc(NS(=O)(=O)c2ccccc2Cl)cc1	88.5
Cc1cc(NC(=O)c2ccc3c(c2)OCO3)no1	69
Clc1ccc2c(N/N=C/c3ccccc3Br)ccnc2c1	169
CSc1ccc(NC(=O)N2CC=C(n3c(=O)[nH]c4ccccc43)CC2)cc1	83.3
COc1cccc(NC(=O)Cc2ccccc2)c1	111
COC(=O)c1c(C)oc2ccc(NS(=O)(=O)c3cc(OC)ccc3OC)cc12	110
Cc1cc(C)c(-c2c(O)c3cnn(-c4ccccc4)c3[nH]c2=O)c(C)c1	149
COCCNC(=O)CCCn1c(=O)c2cc(OC)c(OC)cc2n(CC(=O)NCCC2=CCCCC2)c1=O	83.5
COc1ccc(N2C(=O)c3ccc(C(=O)OC(C)C)cc3C2=O)cc1	37.2
Cc1ccc(S(=O)(=O)N(CCC(=O)O)c2ccccc2)cc1	146
CCOC(=O)C1=NOC2C(=O)N(c3ccc(Cl)cc3Cl)C(=O)C12 (stereo not given)	212
C/C(=N\NC(=O)CCCNc1ccc(C)cc1)c1ccccn1	115
N#Cc1sc2nc3c(cc2c1N)CCCC3	126
COc1cc(Cl)ccc1NC(=O)COc1ccccc1C(=O)N1CCN(c2ccc(O)cc2)CC1	56
CCN(CC)S(=O)(=O)c1ccc(C(=O)C(C#N)c2ccccn2)cc1 (stereo not given)	71.3
CCN(CC)S(=O)(=O)c1ccc2c3c(cccc13)C(=O)N2	156
COc1ccccc1C(=O)NNC(=O)c1nn(Cc2ccccc2)c(=O)c2ccccc12	56.2
O=C(CCCCCn1c(=S)[nH]c2cc3c(cc2c1=O)OCO3)N1CCN(Cc2ccccc2)CC1	151
CCOC(=O)N1N=C(c2ccccc2)CC1(O)C(C)(F)F (stereo not given)	121
CC(NC(=O)Cc1cccs1)c1ccc2c(c1)OCO2 (stereo not given)	123
CC(C)c1nnc(NC(=O)C2CCCN2C(=O)Nc2ccccc2[N+](=O)[O-])s1 (stereo not given)	63.9

Gathered by group: those above with a cyano group.
Structure (SMILES)	normalized cell count [%]
COc1cc(/C=C(\C#N)C(=O)NCC2CCCO2)ccc1OC(C)C (stereo not given)	119
CC(C)Nc1nc(NC(C)C)nc(N(C)C#N)n1	111
N#Cc1sc2nc3c(cc2c1N)CCCC3	126
CCN(CC)S(=O)(=O)c1ccc(C(=O)C(C#N)c2ccccn2)cc1 (stereo not given)	71.3

(further entries)

Structure (SMILES)	normalized cell count [%]
Cc1cc2nc(CCN3CCOCC3)n(S(=O)(=O)c3ccc(C(C)(C)C)cc3)c2cc1C	72.9
COc1ccc(OC)c2[nH]c(=O)c(CCNC(=O)c3ccc(Br)o3)cc12	123
COC(=O)N/N=C\c1cc(Br)ccc1OCc1ccccc1	110
O=C(NCCCn1ccnc1)Nc1ccc(Cl)cc1	81.5
COc1ccc(OC)c(C(=O)c2ccccc2)c1	25.4
COc1cccc(C2=NO[C@@H]3C(=O)N(c4ccc5c(c4)OCCO5)C(=O)[C@H]23)c1OC	122
COCCNC(=O)Cn1c(=O)n(Cc2ccco2)c(=O)c2ccccc21	82.7
Cc1cccc(C2=NNC(=O)C(c3ccc(Cl)cc3)C2)c1 (stereo not given)	23.4
COc1cccc(NC(=O)CNC(=O)c2ccc(F)cc2)c1	137
CCC1(CC)NC(=O)NC1=O	103
Nc1nc(SCC(=O)N2CCc3ccccc3C2)[nH]c(=O)c1-c1ccccc1	51.9
COc1ccc(CNC(=O)c2cnn3c(C(F)F)cc(C)nc23)cc1	107
O=C(NCCO)c1ccc2[nH]c3c(c2c1)CCCC3	120
CN(C)c1nc(Cl)nc(NCCOc2ccccc2)n1	73.4
c1cc(CNC2=NCCCCC2)ccn1	162
Clc1ccc(-c2csc(N3CCOCC3)n2)cc1	114
CC(C)CCNC(=O)NC(=O)COC(=O)C1=COCCO1	47.5
CCOC(=O)N1CCN(C(=O)CSc2ccc(-c3ccncc3)nn2)CC1	105
COc1c(S(=O)(=O)N2CCN(c3ccc(F)cc3)CC2)ccc(Cl)c1Cl	55.9
CCOCCCNC(=O)c1cn(CC(C)C)c(=O)c2cc(OC)c(OC)cc12	95.5
CCN(CC)S(=O)(=O)c1ccc(C(=O)NCc2ccc3c(c2)OCO3)cc1	70.1
CC(NC(=O)c1ccco1)C(c1cccs1)N1CCN(c2ccccc2)CC1 (stereo not given)	140
CCCCOC(=O)Nc1cc(C(=O)OC)ccc1C(=O)OC	95.1

Structure (SMILES)	normalized cell count [%]
Nc1ccccc1-c1nc2ccccc2[nH]1	142
Brc1ccc(N=C/C=C/C=C/Nc2ccc(Br)cc2)cc1	73
Cc1[nH]c2ccccc2c1/C=N/NC(=O)Nc1ccccc1	184
CCOC(=O)c1cnc(-c2ccccc2)nc1N	142
Cn1c(=O)c2c(nc(SCC(=O)NCc3ccc4c(c3)OCO4)n2Cc2ccc(F)cc2)n(C)c1=O	107
COc1ccc(NC(C)=O)cc1C	82.2
Cc1ccc(NC(=O)c2oc3ccc(S(=O)(=O)N4CCC5(CC4)OCCO5)cc3c2C)cc1C	121
O=C(Nc1c2c(nc3ccccc13)CCCC2)c1ccccc1F	55.8
COc1ccc(CNC(=O)Cn2cncn2)cc1OC	119
COc1cc(CC(=O)OCC(=O)Nc2sccc2C(N)=O)cc(OC)c1OC	84
C(=C\c1nc(-c2cccnc2)no1)/c1ccccc1	100
c1cn(CC2(Cn3ccnc3)COC2)cn1	63.2
O=[N+]([O-])c1cccc(/C=N/Nc2nc(N3CCCCC3)nc(N3CCCCC3)n2)c1	125
Cc1ccc(CNc2ccc(N3CCOCC3)cc2)s1	115
CC(=O)c1sc2nc(C)cc(C)c2c1N	91.3
CCCCN(CCCC)S(=O)(=O)c1c(C)[nH]c(=O)[nH]c1=O	90.1
CC(C)Nc1nc(NC(C)C)nc(N(C)C(N)=O)n1	112
CC(NC(=O)c1cc(-c2ccccc2)on1)c1ccccc1 (stereo not given)	103
CCOC(=O)C1(C)C=C(Nc2ccccc2)C(=O)N1c1ccccc1 (stereo not given)	106
CCOC(=O)c1cc(C(C)C)sc1NC(=O)COC(=O)CCS(=O)(=O)c1ccccc1	115
O=C(CN1C(=O)C2CC=CCC2C1=O)Nc1ccc(S(=O)(=O)N2CCOCC2)cc1 (stereo not given)	23.4
Cc1ccc(-n2c(=O)[nH]c3c(C(N)=O)nc(CC(C)C)nc32)cc1	75.9
Cc1cc(S(=O)(=O)N2CCCC2)ccc1OCC(=O)N1CCOCC1	105
